## Primary screen of a compound library

The values are deposited in ChEMBL (CHEMBL3988442, “University of Dundee, Small-Polar-MMV Screening Library” (2021)).

Results are given as percent effect. The controls that fix the scale are not given in the record; negative values are as filed. Compounds were drawn at random from those tested, without regard to their results.

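Whole-parasite assay of Trypanosoma brucei over 72 hours; the read-out is not stated. Concentration: 30 µM. Higher reads as stronger inhibition (inferred: compounds with an IC50 in retests scored well above the rest). Values scatter widely below zero; nearly all retest evidence comes from the higher of the two concentrations used. About 64,000 compounds were tested under these conditions; 1.5% (about 940) showed 50% or more at least once.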

compound,percent effect
Cc1cc(NCc2noc(C(C)C)n2)nc(-c2ccccc2)n1,-8.459
Fc1ccc(CN2CCCC2c2cncc(-n3ccnc3)n2)cc1 (stereo unspecified),39.25
COC1(CNC(=O)NCCc2ccccc2)CCSC1 (stereo unspecified),-3.307
[H][C@]12CC(=O)N(C(C)C)[C@@]1([H])CCN2C(=O)c1ccco1,9.123
CCN(CC)Cc1cc(=O)n2c(n1)CN(C(=O)c1ccc[nH]1)CCC2,11.69
COC(=O)CC(C)(C)CC(=O)N1CCC(C(F)(F)F)CC1,-18.38
Br.Cc1c(NC(=O)CN2CCN(C3CCCC3)C(=O)C2)cnn1C,-20.91
CC(CN1CCCCCC1)NCc1cc(-c2ccco2)on1 (stereo unspecified),32.58
CCCc1cnc(C)nc1N1CCC2(CCCO2)CC1,-17.17
Cc1nc(-c2ccsc2)ccc1C(=O)NCC(C)N1CCOCC1 (stereo unspecified),4.344
Cc1nc(C2CCCN(C(=O)c3sc(C)nc3C)C2)no1 (stereo unspecified),-78.22
CN(Cc1ccccc1NCc1cscn1)C(=O)c1cccs1,-6.193
CC(CNC(=O)c1c[nH]nn1)Oc1ccccc1Br (stereo unspecified),-40.89
[H][C@]12CCN(C(=O)c3ccc(OCCC)c(Cl)c3)C[C@]([H])(CC1)N2,-30.66
CC(C)(CO)CCCNC(=O)N1CCc2c(F)ccc(F)c2C1,-4.59
CC(C)c1cc2c(O)nc(CSCC(=O)NCc3ccncc3)nc2s1,-3.101
COc1ccc(S(=O)(=O)NCC(C)(O)c2cccs2)cc1Cl (stereo unspecified),-352.2
COCCO[C@H]1CCN(C(=O)C2CCOCC2)[C@H]1Cc1ccncc1,-23.07
CC(C)CN1CCCn2nc(CNC(=O)CCN)cc2C1,39.22
Cc1ncncc1C(=O)N1CCC(O)(CN(C)Cc2ccc(F)cc2)C1 (stereo unspecified),-2.467
COCCN1CCCC2(CCN(c3nccnc3N(C)C)C2)C1=O (stereo unspecified),-24.63
CCN(C)C1COC2(CCN(C(=O)c3ccc4[nH]ccc4c3)CC2)C1 (stereo unspecified),-22.87
O=C(Cc1ccccc1)N1CCN(CC(O)c2ccc(F)cc2)CC1 (stereo unspecified),-21.25
CN(C)CCN1C(=O)CCCC12CCCN(Cc1cccs1)C2.O=C(O)C(F)(F)F.O=C(O)C(F)(F)F (stereo unspecified),6.397
CC(NC1(CNC(=O)CC(C)(C)C)CCOCC1)c1ccccc1 (stereo unspecified),18.58
Cc1nc(-c2noc3ccc(C(=O)NCCN(C)C)cc23)co1,-34.54
Cc1cc(C)n(C2CCCN(C(=O)c3cc(C4CC4)on3)C2)n1 (stereo unspecified),9.012
CCN1CCC(CNCc2cc(C)ccc2OC)C1 (stereo unspecified),19.63
Cc1ccc(-c2ccc(Cl)nn2)cc1S(N)(=O)=O,2.529
O=C(C1CCCN(C2CCOCC2)C1)N1Cc2ccccc2C1 (stereo unspecified),-36.54
CCCOc1ccccc1CCCNc1ncnc2oc(C)nc12,99.92
Cn1ccnc1CN1CCCN(C(=O)c2ccc3c(c2)COC3)CC1,-36.47
[H][C@@]12COC[C@]1(COc1ccc(C#N)cn1)CN(Cc1scnc1C)C2,19.73
[H][C@@]12CN(c3cc(OC)ncn3)C[C@@H](C(=O)N3CCCC3)[C@]1([H])CCO2,-40.71
O=C(O)C(F)(F)F.O=C(O)C(F)(F)F.O=C(O)C(F)(F)F.[H][C@@]12CN(CCOC)C[C@]1([H])[C@@H](OC)CCN2Cc1ccncc1,1.52
CCn1ccnc1CN1CCN(Cc2ccccn2)CC1C (stereo unspecified),-45.85
CCOCCCNCc1cc2c(C)cc(C)cc2n2c(=O)n(C)nc12,2.995
O=C(NCc1ccccc1)NCc1nc(-c2ccncc2)n[nH]1,-22.06
CC(C)(C)n1cc(C(=O)NCCCn2ccnc2)c2cccnc21,23.49
N#Cc1cccc(OCCN2CCNC(=O)C2c2cccs2)c1 (stereo unspecified),-12.62
Cc1cc(C)c(CNc2nc3ccccc3cc2CO)c(=O)[nH]1,-635.7
CCCNC(=O)c1ccc(NC(=O)NC(C)c2ccccn2)cc1 (stereo unspecified),-3.386
COc1cc(S(=O)(=O)N2CCc3ccc(F)cc32)cc(C(=O)O)c1OC,-4.843
CSCC(=O)N1CCCC(CCC(=O)N(C)CCc2ccccn2)C1 (stereo unspecified),-8.792
CCC(CC)C(=O)NCc1cnn(CC)c1,-28.37
Cl.N#Cc1ccc(NC(=O)C2CSCN2)cc1 (stereo unspecified),-30.14
CC(C)c1nn(C)c(N2CCOCC2)c1CNCCS(C)(=O)=O,11.93
CC(c1ncc(C(C)(C)C)o1)N1CCN(Cc2ccco2)CC1 (stereo unspecified),-27.32
COc1ncccc1N(C)C(=O)Cn1cc(-c2ccccc2)nn1,-20.47
CN(C)CCOCc1nnc2n1CCN(Cc1ccco1)C2.O=C(O)C(F)(F)F.O=C(O)C(F)(F)F,-16.71
CCOCCNC(=O)c1cccc(S(=O)(=O)NC[C@@H]2C[C@H](F)CN2)c1,-49.43
CC(=O)N1CCc2c(nc(-c3ccccn3)nc2N(C)CC(O)CO)C1 (stereo unspecified),38.12
COc1ccc(-n2ncc(C(=O)NCC3COC(C)(C)O3)c2N)cc1 (stereo unspecified),-27.86
CCc1nc(C2CCCN(C(=O)c3c[nH]c(C(C)C)n3)C2)no1 (stereo unspecified),-37.28
CSCc1noc(CNC(=O)C2CCN(C(C)C)CC2)n1,4.717
CS(=O)(=O)N1CCOCC2(CN(Cc3ccsc3)CCO2)C1.O=C(O)C(F)(F)F (stereo unspecified),-7.738
Cc1nccn1Cc1nnc(C2CCCN(c3ncccn3)C2)n1C (stereo unspecified),-50.38
CC(C)CCN1CCc2c(C(=O)N(C)Cc3ccccn3)nn(C)c2C1.O=C(O)C(F)(F)F.O=C(O)C(F)(F)F.O=C(O)C(F)(F)F,-46.03
CC(C)OCCC1CCCCN1S(=O)(=O)c1cnn(C)c1 (stereo unspecified),-45.4
CN(C)C(CNC(=O)c1nc(N2CCOCC2)ncc1Cl)c1ccco1 (stereo unspecified),-23.44
COCCN1CCc2cc(C(=O)NC(C)C)c(NCC3CC3)nc2CC1.O=C(O)C(F)(F)F.O=C(O)C(F)(F)F,-47.05
CC(=O)N1CCC(c2cncc(Cl)n2)CC1,-28.13
Cc1ccc(NC(=O)N2CC[C@@H](O)C2)c(-c2nc(C3CC3)no2)c1,-17.46
Cc1ncnc2c1CCN(C(=O)c1ccncc1F)CC2.O=C(O)C(F)(F)F,-19.69
Cc1nn(-c2ccccc2)c(C)c1-c1ccnc(N2CCCNCC2)n1,15.56
Cc1cc(NC(=O)CN2CCCC(Cn3cncn3)C2)no1 (stereo unspecified),-13.74
Cc1ncn(CCNC(=O)Nc2ccccc2)c(=O)c1C,-5.834
Cc1n[nH]c(C)c1CNC(=O)c1cn(CCC2CCCCN2)nn1 (stereo unspecified),-26.04
O=C(NCCOc1ccc2c(c1)CCC2)N1CCS(=O)(=O)CC1,10.04
[H][C@@]12CCN(c3ncccn3)C[C@]1([H])[C@H](C(=O)N1CCN(C)CC1)CCO2,26.71
CCc1nnc(S(=O)(=O)Cc2cc(Cl)c3c(c2)OCO3)n1C,4.097
CCOC(=O)CC1CCCCN1C(=O)c1cccc2ccnn12 (stereo unspecified),0.7451
Cc1noc(C)c1CN(C)CCc1nc(-c2cccc(Cl)c2)no1,4.268
CNC(=O)c1coc(-c2csc(C)n2)c1,-6.822
CCCS(=O)(=O)N1CCN(CCCO)CC1,-15.46
Cc1ccccc1-c1cc(NC(=O)NC2CC2)n(CCO)n1,80.61
Cc1noc(C)c1CC(=O)N[C@@H]1CC[C@@H](Oc2ccccc2)[C@@H]1O,-21.48
Cc1cc(-c2cccc(-c3ccn(CCCO)n3)c2)nc(N(C)C)n1,-10.11
O=C(O)C(F)(F)F.[H][C@@]12OCCN(c3ncccn3)[C@@]1([H])CC[C@H]2OCCN1CCCC1,-29.95
COC(=O)c1cccn1C1CCN(C(=O)c2cc(F)ccc2C)CC1,0.9371
NC(=O)C1(c2cnccn2)CCCN1Cc1ccc(Cl)c(F)c1 (stereo unspecified),-8.557
Cc1nc(C)c(C(=O)NCCNc2cc(N3CCCC3)ncn2)s1,-19.55
CCS(=O)(=O)CCN1CCC(N(C)Cc2noc(C(C)C)n2)C1 (stereo unspecified),1.856
[H][C@@]12CN(Cc3ccccc3)C[C@]1([H])N(CCCN1CCOCC1)C(=O)O2,65.91
N#Cc1ccc(CN2CCCCC2Cn2cncn2)cc1 (stereo unspecified),-56.27
Cc1ccc(C(C)N(C)Cc2nc3c(cnn3C)c(=O)[nH]2)cc1 (stereo unspecified),18.7
CCOC(=O)c1n[nH]cc1CN1CCOC(Cc2ccc(OC)cc2)C1 (stereo unspecified),-60.14
Cc1ccoc1C(=O)NCC(c1ccccc1Cl)N1CCOCC1 (stereo unspecified),-44.42
COc1ccc(N(Cc2ccco2)C(=O)C2CCCO2)cc1F (stereo unspecified),-4.025
CCc1nnc(CN(C)C(=O)C(CC)n2c(CC)nc3ccccc32)o1 (stereo unspecified),-23.2
Cc1c(C(=O)OCC2CC(=O)N(c3ccccc3)C2)cnn1C(C)C (stereo unspecified),-37.55

Repeated from the top, 9 entries:

compound,percent effect
Cc1cc(NCc2noc(C(C)C)n2)nc(-c2ccccc2)n1,-8.459
Fc1ccc(CN2CCCC2c2cncc(-n3ccnc3)n2)cc1 (stereo unspecified),39.25
COC1(CNC(=O)NCCc2ccccc2)CCSC1 (stereo unspecified),-3.307
[H][C@]12CC(=O)N(C(C)C)[C@@]1([H])CCN2C(=O)c1ccco1,9.123
CCN(CC)Cc1cc(=O)n2c(n1)CN(C(=O)c1ccc[nH]1)CCC2,11.69
COC(=O)CC(C)(C)CC(=O)N1CCC(C(F)(F)F)CC1,-18.38
Br.Cc1c(NC(=O)CN2CCN(C3CCCC3)C(=O)C2)cnn1C,-20.91
CC(CN1CCCCCC1)NCc1cc(-c2ccco2)on1 (stereo unspecified),32.58
CCCc1cnc(C)nc1N1CCC2(CCCO2)CC1,-17.17